Experimental data as given in patent US20240245677A1, “SELECTED COMPOUNDS FOR TARGETED DEGRADATION OF BRD9” (C4 THERAPEUTICS, INC., priority 2021, published 2024).
Where two headings read alike, the source gives them in different places.

Key:
[1] = Plasma protein binding by ultracentrifugation, mouse plasma; conditions: average n = 3
Method: (§1) Plasma protein binding (PPB) of Compound 1 was evaluated in plasma from mice, rats, dogs, cynomolgus monkeys, and humans using ultracentrifugation.
(§2) Frozen plasma from CD-1 mice, Sprague-Dawley rats, beagle dogs, cynomolgus monkeys, and humans was purchased and stored at ≤−30° C. On the day of study, plasma samples of CD-1 mice, Sprague-Dawley rats, beagle dogs, cynomolgus monkeys and humans were thawed under running cold tap water and centrifuged to remove any particulates.
(§3) For the internal standard, telmisartan, a 1 mg/mL solution was prepared by dissolving 1.4 mg of telmisartan in 1.4 mL of DMSO, and stored at 4° C.
(§4) The 10 mM stock solution of each test compound was used to prepare 400 μM intermediate stocks in methanol. Then, a 2 μM working stock of each test compound was prepared for plasma from each species (mouse, rat, dog, monkey, and human) by spiking 12 μL of the 400 μM intermediate stock for each test compound into 2400 μL of thawed and prepared plasma from a test species. […]
(§5) All the stability samples and centrifuged samples were vortexed at 1000 rpm for 5 minutes and centrifuged at 4000 rpm for 10 minutes. Supernatant from each sample was separated, diluted 2-fold with water, and analyzed in LC-MS/MS.
(§6) Samples (supernatant-free fraction and total plasma) were analyzed by LCMS-MS (no standards).

[2] = Plasma protein binding by ultracentrifugation, rat plasma
Method: as §1, §2, §3
(§7) The 10 mM stock solution of each test compound was used to prepare 400 μM intermediate stocks in methanol. Then, a 2 μM working stock of each test compound was prepared for plasma from each species (mouse, rat, dog, monkey, and human) by spiking 12 μL of the 400 μM intermediate stock for each test compound into 2400 μL of thawed and prepared plasma from a test species.
(§8) 400 μL of blank plasma for each species was transferred to a 0.5 mL Beckman tube (Part No. 343776, Beckman Coulter Life Sciences, Indianapolis, IN, USA) and centrifuged for 3 hours at 627000×g at 37° C. The supernatant was removed and kept at room temperature.
(§9) To prepare for ultracentrifugation, the rotor of the centrifuge was placed into an incubator and warmed up to 37° C. before centrifugation. The vacuum switch of the OPTIMA™ MAX-TL Ultracentrifuge (Beckman Coulter Life Sciences, Indianapolis, IN, USA) was turned on and the vacuum was reduced to less than 10 microns to warm up the system. The ultracentrifuge's parameters were set to the following: Temperature—37° C.; Time—3 hours; and Speed—627000×g. […]
as §5, §6

[3] = Plasma protein binding by ultracentrifugation, dog plasma; conditions: average n = 3
Method: as §1, §2, §3, §4, §5, §6

[4] = Plasma protein binding by ultracentrifugation, monkey plasma; conditions: average n = 3
Method: as §1, §2, §3, §4, §5, §6

[5] = human, plasma, 2 µM
Method: as §1, §2, §3, §7, §8, §9, §5, §6

## CC(C)NCC(O)COc1ccc(CC(N)=O)cc1 (stereo not drawn) [Atenolol]
[1]
  % Remaining at 3 hours: 125.31%
[2]; Sprague-Dawley, rat, plasma
  fraction unbound at 3 h, 2 µM: 0.846
[2]; rat plasma, average n = 3
  % Bound: 15.40%
  % Remaining at 3 hours: 85.83%
[3]
  % Remaining at 3 hours: 75.82%
[4]
  % Remaining at 3 hours: 124.51%
[5]
  % Remaining at 3 hours: 90.68%
[5]; 3 h
  % Bound: −4.26%
  % FU: 104.26%
